Measurements from article PMC5717064, “Alternative substrate-bound conformation of bacterial solute-binding protein involved in the import of mammalian host glycosaminoglycans” (Scientific Reports, 2017).

By UniProt entry, the sequences of proteins in these tests, tags left out. Where a name states a change or a piece, a line headed by the entry shows the natural chain unless it says otherwise.
UniProt D1AWD9: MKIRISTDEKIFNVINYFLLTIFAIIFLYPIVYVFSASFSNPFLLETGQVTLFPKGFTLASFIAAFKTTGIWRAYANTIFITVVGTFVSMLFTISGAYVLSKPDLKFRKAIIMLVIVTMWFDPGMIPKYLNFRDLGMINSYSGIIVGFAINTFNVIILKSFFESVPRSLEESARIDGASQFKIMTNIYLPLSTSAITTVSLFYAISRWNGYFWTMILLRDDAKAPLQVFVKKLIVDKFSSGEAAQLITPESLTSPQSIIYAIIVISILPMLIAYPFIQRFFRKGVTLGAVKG
UniProt D1AWD8: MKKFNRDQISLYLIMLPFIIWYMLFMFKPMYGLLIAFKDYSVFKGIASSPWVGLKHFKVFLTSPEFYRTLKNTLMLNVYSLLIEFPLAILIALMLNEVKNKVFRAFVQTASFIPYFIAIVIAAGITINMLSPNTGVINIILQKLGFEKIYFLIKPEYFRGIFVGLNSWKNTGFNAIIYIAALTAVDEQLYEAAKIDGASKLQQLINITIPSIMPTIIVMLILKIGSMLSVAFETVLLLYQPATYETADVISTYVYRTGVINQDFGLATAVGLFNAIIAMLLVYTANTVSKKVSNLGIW

B1: Smon0120 (protein, UniProt D1AWD7 1-366)
chain: MAEVILKKVEKQYPNGFKAVHGIDLEIRDGEFMVFVGPSGCAKSTTLRMIAGLEDITGGEIYIGDKLVNDVPPKDRGIAMVFQNYALYPHMSVYENMAFGLKLKKTPKEEIDRRVKEAAEKLEITELLDRKPKEMSGGQRQRVALGRAIVREPKVFLFDEPLSNLDAKLRVSMRVRITQLHKELKTTMIYVTHDQVEAMTMGDRITVLKLGRIMQVDTPLNLYHRPANKFVAGFIGSPTMNLLEGELVRREERTFIDIEGALIELHPSKAEKVKGYIGKRVIFGIRPENISTTKEESTYTQIGEVSVVEQMGNEEYIYFKLSGKQMTCRMNVDGISETSKQGKELFYFDTSKAHIFDIDTEENISL

Biological target: Smon0122 with a His-tagged sequence at the C-terminus (Streptobacillus moniliformis) (UniProt D1AWD9)
Assay: co-purification (Ni-NTA metal affinity, gel filtration); transporter purified from detergent-solubilized recombinant E. coli membrane by the C-terminal His tag of Smon0122, then Hi Load 16/60 Superdex 200 pg

Molecule	binding
Smon0121 (from UniProt D1AWD8)	binds
B1	binds

These are yes or no findings as the source states them, for the method shown. In cells and extracts the contact can be indirect. Binding calls can cover weak binding; strength is not graded here.
